Results are given in words; binding and its absence hold for the method and conditions named. In cells and extracts the contact can be indirect. Here binding means that the protein was enriched with, or labelled near, the bait; the list need not be complete. Where a sequence is shown, tags or fusion partners need not be part of it.
B1: BipA GTPase (protein, UniProt P0DTT0 1-607)
chain: MIEKLRNIAIIAHVDHGKTTLVDKLLQQSGTFDSRAETQERVMDSNDLEKERGITILAKNTAIKWNDYRINIVDTPGHADFGGEVERVMSMVDSVLLVVDAFDGPMPQTRFVTKKAFAYGLKPIVVINKVDRPGARPDWVVDQVFDLFVNLDATDEQLDFPIVYASALNGIAGLDHEDMAEDMTPLYQAIVDHVPAPDVDLDGPFQMQISQLDYNSYVGVIGIGRIKRGKVKPNQQVTIIDSEGKTRNAKVGKVLGHLGLERIETDLAEAGDIVAITGLGELNISDTVCDTQNVEALPALSVDEPTVSMFFCVNTSPFCGKEGKFVTSRQILDRLNKELVHNVALRVEETEDADAFRVSGRGELHLSVLIENMRREGFELAVSRPKVIFREIDGRKQEPYENVTLDVEEQHQGSVMQALGERKGDLKNMNPDGKGRVRLDYVIPSRGLIGFRSEFMTMTSGTGLLYSTFSHYDDVRPGEVGQRQNGVLISNGQGKAVAFALFGLQDRGKLFLGHGAEVYEGQIIGIHSRSNDLTVNCLTGKKLTNMRASGTDEAVVLVPPIRMTLEQALEFIDDDELVEVTPTSIRIRKRHLTENDRRRANRAPKDD
B2: polyphosphate kinase (Ppk) (protein, UniProt P0A7B1 1-688)
chain: MGQEKLYIEKELSWLSFNERVLQEAADKSNPLIERMRFLGIYSNNLDEFYKVRFAELKRRIIISEEQGSNSHSRHLLGKIQSRVLKADQEFDGLYNELLLEMARNQIFLINERQLSVNQQNWLRHYFKQYLRQHITPILINPDTDLVQFLKDDYTYLAVEIIRGDTIRYALLEIPSDKVPRFVNLPPEAPRRRKPMILLDNILRYCLDDIFKGFFDYDALNAYSMKMTRDAEYDLVHEMEASLMELMSSSLKQRLTAEPVRFVYQRDMPNALVEVLREKLTISRYDSIVPGGRYHNFKDFINFPNVGKANLVNKPLPRLRHIWFDKAQFRNGFDAIRERDVLLYYPYHTFEHVLELLRQASFDPSVLAIKINIYRVAKDSRIIDSMIHAAHNGKKVTVVVELQARFDEEANIHWAKRLTEAGVHVIFSAPGLKIHAKLFLISRKENGEVVRYAHIGTGNFNEKTARLYTDYSLLTADARITNEVRRVFNFIENPYRPVTFDYLMVSPQNSRRLLYEMVDREIANAQQGLPSGITLKLNNLVDKGLVDRLYAASSSGVPVNLLVRGMCSLIPNLEGISDNIRAISIVDRYLEHDRVYIFENGGDKKVYLSSADWMTRNIDYRIEVATPLLDPRLKQRVLDIIDILFSDTVKARYIDKELSNRYVPRGNRRKVRAQLAIYDYIKSLEQPE
B3: AhpF subunit of alkyl hydroperoxide reductase (protein, UniProt P35340 1-521)
chain: MLDTNMKTQLKAYLEKLTKPVELIATLDDSAKSAEIKELLAEIAELSDKVTFKEDNSLPVRKPSFLITNPGSNQGPRFAGSPLGHEFTSLVLALLWTGGHPSKEAQSLLEQIRHIDGDFEFETYYSLSCHNCPDVVQALNLMSVLNPRIKHTAIDGGTFQNEITDRNVMGVPAVFVNGKEFGQGRMTLTEIVAKIDTGAEKRAAEELNKRDAYDVLIVGSGPAGAAAAIYSARKGIRTGLMGERFGGQILDTVDIENYISVPKTEGQKLAGALKVHVDEYDVDVIDSQSASKLIPAAVEGGLHQIETASGAVLKARSIIVATGAKWRNMNVPGEDQYRTKGVTYCPHCDGPLFKGKRVAVIGGGNSGVEAAIDLAGIVEHVTLLEFAPEMKADQVLQDKLRSLKNVDIILNAQTTEVKGDGSKVVGLEYRDRVSGDIHNIELAGIFVQIGLLPNTNWLEGAVERNRMGEIIIDAKCETNVKGVFAAGDCTTVPYKQIIIATGEGAKASLSAFDYLIRTKTA
B4: SeqA (protein, UniProt P0AFY8 1-181)
chain: MKTIEVDDELYSYIASHTKHIGESASDILRRMLKFSAASQPAAPVTKEVRVASPAIVEAKPVKTIKDKVRAMRELLLSDEYAEQKRAVNRFMLLLSTLYSLDAQAFAEATESLHGRTRVYFAADEQTLLKNGNQTKPKHVPGTPYWVITNTNTGRKCSMIEHIMQSMQFPAELIEKVCGTI
B5: FabH (protein, UniProt P0A6R0 1-317)
chain: MYTKIIGTGSYLPEQVRTNADLEKMVDTSDEWIVTRTGIRERHIAAPNETVSTMGFEAATRAIEMAGIEKDQIGLIVVATTSATHAFPSAACQIQSMLGIKGCPAFDVAAACAGFTYALSVADQYVKSGAVKYALVVGSDVLARTCDPTDRGTIIIFGDGAGAAVLAASEEPGIISTHLHADGSYGELLTLPNADRVNPENSIHLTMAGNEVFKVAVTELAHIVDETLAANNLDRSQLDWLVPHQANLRIISATAKKLGMSMDNVVVTLDRHGNTSAASVPCALDEAVRDGRIKPGQLVLLEAFGGGFTWGSALVRF
B6: KatE (protein, UniProt P21179 1-753)
chain: MSQHNEKNPHQHQSPLHDSSEAKPGMDSLAPEDGSHRPAAEPTPPGAQPTAPGSLKAPDTRNEKLNSLEDVRKGSENYALTTNQGVRIADDQNSLRAGSRGPTLLEDFILREKITHFDHERIPERIVHARGSAAHGYFQPYKSLSDITKADFLSDPNKITPVFVRFSTVQGGAGSADTVRDIRGFATKFYTEEGIFDLVGNNTPIFFIQDAHKFPDFVHAVKPEPHWAIPQGQSAHDTFWDYVSLQPETLHNVMWAMSDRGIPRSYRTMEGFGIHTFRLINAEGKATFVRFHWKPLAGKASLVWDEAQKLTGRDPDFHRRELWEAIEAGDFPEYELGFQLIPEEDEFKFDFDLLDPTKLIPEELVPVQRVGKMVLNRNPDNFFAENEQAAFHPGHIVPGLDFTNDPLLQGRLFSYTDTQISRLGGPNFHEIPINRPTCPYHNFQRDGMHRMGIDTNPANYEPNSINDNWPRETPPGPKRGGFESYQERVEGNKVRERSPSFGEYYSHPRLFWLSQTPFEQRHIVDGFSFELSKVVRPYIRERVVDQLAHIDLTLAQAVAKNLGIELTDDQLNITPPPDVNGLKKDPSLSLYAIPDGDVKGRVVAILLNDEVRSADLLAILKALKAKGVHAKLLYSRMGEVTADDGTVLPIAATFAGAPSLTVDAVIVPCGNIADIADNGDANYYLMEAYKHLKPIALAGDARKFKATIKIADQGEEGIVEADSADGSFMDELLTLMAAHRVWSRIPKIDKIPA
B7: AcnB (protein, UniProt P36683 1-865)
chain: MLEEYRKHVAERAAEGIAPKPLDANQMAALVELLKNPPAGEEEFLLDLLTNRVPPGVDEAAYVKAGFLAAIAKGEAKSPLLTPEKAIELLGTMQGGYNIHPLIDALDDAKLAPIAAKALSHTLLMFDNFYDVEEKAKAGNEYAKQVMQSWADAEWFLNRPALAEKLTVTVFKVTGETNTDDLSPAPDAWSRPDIPLHALAMLKNAREGIEPDQPGVVGPIKQIEALQQKGFPLAYVGDVVGTGSSRKSATNSVLWFMGDDIPHVPNKRGGGLCLGGKIAPIFFNTMEDAGALPIEVDVSNLNMGDVIDVYPYKGEVRNHETGELLATFELKTDVLIDEVRAGGRIPLIIGRGLTTKAREALGLPHSDVFRQAKDVAESDRGFSLAQKMVGRACGVKGIRPGAYCEPKMTSVGSQDTTGPMTRDELKDLACLGFSADLVMQSFCHTAAYPKPVDVNTHHTLPDFIMNRGGVSLRPGDGVIHSWLNRMLLPDTVGTGGDSHTRFPIGISFPAGSGLVAFAAATGVMPLDMPESVLVRFKGKMQPGITLRDLVHAIPLYAIKQGLLTVEKKGKKNIFSGRILEIEGLPDLKVEQAFELTDASAERSAAGCTIKLNKEPIIEYLNSNIVLLKWMIAEGYGDRRTLERRIQGMEKWLANPELLEADADAEYAAVIDIDLADIKEPILCAPNDPDDARPLSAVQGEKIDEVFIGSCMTNIGHFRAAGKLLDAHKGQLPTRLWVAPPTRMDAAQLTEEGYYSVFGKSGARIEIPGCSLCMGNQARVADGATVVSTSTRNFPNRLGTGANVFLASAELAAVAALIGKLPTPEEYQTYVAQVDKTAVDTYRYLNFNQLSQYTEKADGVIFQTAV
B8: GlpD (protein, UniProt P13035 1-501)
chain: METKDLIVIGGGINGAGIAADAAGRGLSVLMLEAQDLACATSSASSKLIHGGLRYLEHYEFRLVSEALAEREVLLKMAPHIAFPMRFRLPHRPHLRPAWMIRIGLFMYDHLGKRTSLPGSTGLRFGANSVLKPEIKRGFEYSDCWVDDARLVLANAQMVVRKGGEVLTRTRATSARRENGLWIVEAEDIDTGKKYSWQARGLVNATGPWVKQFFDDGMHLPSPYGIRLIKGSHIVVPRVHTQKQAYILQNEDKRIVFVIPWMDEFSIIGTTDVEYKGDPKAVKIEESEINYLLNVYNTHFKKQLSRDDIVWTYSGVRPLCDDESDSPQAITRDYTLDIHDENGKAPLLSVFGGKLTTYRKLAEHALEKLTPYYQGIGPAWTKESVLPGGAIEGDRDDYAARLRRRYPFLTESLARHYARTYGSNSELLLGNAGTVSDLGEDFGHEFYEAELKYLVDHEWVRRADDALWRRTKQGMWLNADQQSRVSQWLVEYTQQRLSLAS

By UniProt entry, the sequences of proteins in these tests, tags left out.
UniProt P0A6H5: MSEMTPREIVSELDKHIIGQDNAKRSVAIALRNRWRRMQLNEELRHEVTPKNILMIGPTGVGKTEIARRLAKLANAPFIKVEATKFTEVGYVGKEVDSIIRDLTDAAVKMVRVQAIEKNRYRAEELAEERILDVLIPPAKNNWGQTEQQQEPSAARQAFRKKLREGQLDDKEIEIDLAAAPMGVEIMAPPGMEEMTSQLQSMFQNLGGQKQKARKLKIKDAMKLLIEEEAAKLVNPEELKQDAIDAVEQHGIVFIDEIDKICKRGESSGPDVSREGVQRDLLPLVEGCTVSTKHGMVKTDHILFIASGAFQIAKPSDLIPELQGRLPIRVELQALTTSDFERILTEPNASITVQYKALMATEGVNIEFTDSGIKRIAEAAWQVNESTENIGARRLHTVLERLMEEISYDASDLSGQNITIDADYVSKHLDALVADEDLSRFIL
UniProt P13029: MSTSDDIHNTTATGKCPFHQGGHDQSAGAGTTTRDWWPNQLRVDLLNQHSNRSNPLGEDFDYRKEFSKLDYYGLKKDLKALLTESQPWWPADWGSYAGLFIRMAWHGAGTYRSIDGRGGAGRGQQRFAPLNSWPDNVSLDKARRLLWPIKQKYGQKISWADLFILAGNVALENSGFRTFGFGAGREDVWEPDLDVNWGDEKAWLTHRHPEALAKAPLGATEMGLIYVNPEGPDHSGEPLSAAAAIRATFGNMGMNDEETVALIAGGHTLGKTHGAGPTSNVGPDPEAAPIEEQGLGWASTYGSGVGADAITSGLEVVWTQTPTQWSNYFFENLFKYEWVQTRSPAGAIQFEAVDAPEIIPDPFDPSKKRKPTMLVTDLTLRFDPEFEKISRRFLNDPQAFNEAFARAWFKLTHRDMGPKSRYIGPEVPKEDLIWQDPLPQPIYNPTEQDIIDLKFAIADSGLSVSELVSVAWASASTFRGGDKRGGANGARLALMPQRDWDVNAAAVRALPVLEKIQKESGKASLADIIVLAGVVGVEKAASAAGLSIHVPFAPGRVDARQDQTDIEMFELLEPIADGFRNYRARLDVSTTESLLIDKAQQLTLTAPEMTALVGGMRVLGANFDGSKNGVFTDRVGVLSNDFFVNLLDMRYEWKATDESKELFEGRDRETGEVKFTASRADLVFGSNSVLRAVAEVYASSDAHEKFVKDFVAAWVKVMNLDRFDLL
UniProt P0A9P0: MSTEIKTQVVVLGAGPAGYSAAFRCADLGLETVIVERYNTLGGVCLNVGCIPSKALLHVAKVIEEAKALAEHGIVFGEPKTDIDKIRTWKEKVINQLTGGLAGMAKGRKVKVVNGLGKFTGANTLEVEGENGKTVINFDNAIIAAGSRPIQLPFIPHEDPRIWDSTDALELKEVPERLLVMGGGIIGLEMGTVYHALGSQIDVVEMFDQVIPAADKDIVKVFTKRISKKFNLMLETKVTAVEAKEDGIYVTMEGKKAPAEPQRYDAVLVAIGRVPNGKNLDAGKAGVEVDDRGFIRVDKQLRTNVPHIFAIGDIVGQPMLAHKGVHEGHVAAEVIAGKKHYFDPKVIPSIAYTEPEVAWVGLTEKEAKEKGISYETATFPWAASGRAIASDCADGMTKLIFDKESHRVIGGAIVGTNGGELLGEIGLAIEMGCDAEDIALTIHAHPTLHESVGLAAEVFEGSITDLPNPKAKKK
UniProt P0A9A6: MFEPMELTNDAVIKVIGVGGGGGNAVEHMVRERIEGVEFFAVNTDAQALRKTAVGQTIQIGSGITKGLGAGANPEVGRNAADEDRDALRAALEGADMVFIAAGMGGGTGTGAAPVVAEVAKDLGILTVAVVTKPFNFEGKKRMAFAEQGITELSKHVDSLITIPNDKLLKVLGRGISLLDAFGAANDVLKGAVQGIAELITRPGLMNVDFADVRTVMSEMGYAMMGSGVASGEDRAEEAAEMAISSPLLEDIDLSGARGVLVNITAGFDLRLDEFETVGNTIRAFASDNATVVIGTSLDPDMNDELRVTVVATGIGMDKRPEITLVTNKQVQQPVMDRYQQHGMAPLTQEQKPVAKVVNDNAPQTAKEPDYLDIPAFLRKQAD
UniProt P0A7G6: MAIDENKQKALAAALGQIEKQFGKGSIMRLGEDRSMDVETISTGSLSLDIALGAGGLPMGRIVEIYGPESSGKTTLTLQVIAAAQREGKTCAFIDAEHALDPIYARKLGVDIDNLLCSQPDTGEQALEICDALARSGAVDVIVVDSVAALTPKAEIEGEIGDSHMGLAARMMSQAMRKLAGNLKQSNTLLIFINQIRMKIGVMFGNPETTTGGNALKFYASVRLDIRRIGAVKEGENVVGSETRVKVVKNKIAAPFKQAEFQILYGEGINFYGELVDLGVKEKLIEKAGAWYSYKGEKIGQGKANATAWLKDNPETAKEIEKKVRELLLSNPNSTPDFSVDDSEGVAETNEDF
UniProt P0A6U3: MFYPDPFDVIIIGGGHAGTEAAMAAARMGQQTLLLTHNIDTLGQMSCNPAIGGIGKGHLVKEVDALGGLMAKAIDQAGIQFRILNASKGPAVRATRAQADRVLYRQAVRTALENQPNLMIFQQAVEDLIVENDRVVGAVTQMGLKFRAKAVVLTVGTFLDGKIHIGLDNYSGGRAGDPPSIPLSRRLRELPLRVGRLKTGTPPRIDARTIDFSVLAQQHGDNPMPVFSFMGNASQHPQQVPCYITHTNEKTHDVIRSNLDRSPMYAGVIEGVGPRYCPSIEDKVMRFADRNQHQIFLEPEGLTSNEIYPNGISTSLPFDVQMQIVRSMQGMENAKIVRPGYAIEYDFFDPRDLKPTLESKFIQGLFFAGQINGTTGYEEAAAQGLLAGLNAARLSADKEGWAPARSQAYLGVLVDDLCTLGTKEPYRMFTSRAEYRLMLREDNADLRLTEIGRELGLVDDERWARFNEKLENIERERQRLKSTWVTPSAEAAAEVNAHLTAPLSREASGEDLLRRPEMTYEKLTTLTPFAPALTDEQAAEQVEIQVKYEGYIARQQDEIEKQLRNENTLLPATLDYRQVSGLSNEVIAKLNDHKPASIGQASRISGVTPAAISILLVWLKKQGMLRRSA
UniProt P0A6P9: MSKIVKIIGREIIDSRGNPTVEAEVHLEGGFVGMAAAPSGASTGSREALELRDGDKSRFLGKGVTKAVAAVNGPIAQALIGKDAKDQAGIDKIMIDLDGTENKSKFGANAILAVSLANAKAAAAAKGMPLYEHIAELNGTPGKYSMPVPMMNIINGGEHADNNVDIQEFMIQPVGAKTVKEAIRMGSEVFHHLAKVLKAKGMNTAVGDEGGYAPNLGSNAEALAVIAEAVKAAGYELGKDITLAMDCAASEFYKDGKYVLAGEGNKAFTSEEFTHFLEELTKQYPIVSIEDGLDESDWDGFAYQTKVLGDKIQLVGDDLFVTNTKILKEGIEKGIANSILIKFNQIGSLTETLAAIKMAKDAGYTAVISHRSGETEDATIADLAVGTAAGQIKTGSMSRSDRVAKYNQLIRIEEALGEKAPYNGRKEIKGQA
UniProt P0AEZ3: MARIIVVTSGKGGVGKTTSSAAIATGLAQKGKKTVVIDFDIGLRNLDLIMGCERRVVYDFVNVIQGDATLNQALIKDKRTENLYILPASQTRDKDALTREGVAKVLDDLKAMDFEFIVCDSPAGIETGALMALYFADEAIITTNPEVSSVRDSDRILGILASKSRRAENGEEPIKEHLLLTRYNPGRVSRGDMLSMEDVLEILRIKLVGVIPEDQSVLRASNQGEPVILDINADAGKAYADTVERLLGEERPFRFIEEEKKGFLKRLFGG
UniProt P0A6H1: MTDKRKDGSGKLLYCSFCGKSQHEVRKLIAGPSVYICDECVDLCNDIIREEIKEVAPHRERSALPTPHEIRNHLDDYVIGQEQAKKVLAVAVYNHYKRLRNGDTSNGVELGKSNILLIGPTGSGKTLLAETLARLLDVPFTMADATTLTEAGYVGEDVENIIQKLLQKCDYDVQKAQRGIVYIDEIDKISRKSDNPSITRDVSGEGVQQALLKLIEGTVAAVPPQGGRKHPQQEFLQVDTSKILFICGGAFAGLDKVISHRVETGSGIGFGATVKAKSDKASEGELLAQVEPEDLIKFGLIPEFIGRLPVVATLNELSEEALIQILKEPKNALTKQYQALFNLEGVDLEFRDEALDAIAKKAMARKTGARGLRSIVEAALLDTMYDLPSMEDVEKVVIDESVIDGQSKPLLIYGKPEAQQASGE

biological target: T1, His6-tagged PpiB (wild type) (E. coli) (UniProt P23869); assay: affinity purification with mass spectrometry; His6-tagged PPI induced with 0.1 mM IPTG in an E. coli T7 express derivative lacking all six PPIs (SR21984); soluble lysate on Ni-NTA beads, 50 mM NaH2PO4, 300 mM NaCl, eluted with a linear imidazole gradient (50-500 mM); co-eluting proteins resolved by SDS-PAGE (for FkpB also 2D gels) and identified by MALDI-TOF
T1 sequence: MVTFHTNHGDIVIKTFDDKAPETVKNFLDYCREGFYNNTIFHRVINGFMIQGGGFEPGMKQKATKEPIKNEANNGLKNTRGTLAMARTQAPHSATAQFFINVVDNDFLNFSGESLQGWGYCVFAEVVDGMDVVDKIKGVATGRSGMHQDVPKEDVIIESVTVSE

binding, binds:
heat shock protein HslU (from UniProt P0A6H5 1-443)
KatG (from UniProt P13029 1-726)
LpdA (from UniProt P0A9P0 1-474)
FtsZ (from UniProt P0A9A6 1-383)
RecA (from UniProt P0A7G6 1-353)
MnmG (from UniProt P0A6U3 1-629)
Eno (from UniProt P0A6P9 1-432)
MinD (from UniProt P0AEZ3 1-270)
ClpX (from UniProt P0A6H1 1-424)

biological target: T2, Hexa-His-tagged PpiC (wild type) (E. coli, UniProt P0A9L5 1-93); assay: as above
T2 construct: PpiC, parvulin peptidyl-prolyl cis/trans isomerase, E. coli; coding region of the ppiC gene in pET24b; The tag is called cleavable; also called wt PpiC; wild-type PpiC; source: E. coli T7 express derivative lacking all six PPIs (SR21984), IPTG-induced; in lysate on Ni-NTA for co-elution; purified (Ni-NTA) for ITC; not shown: His6, C-terminal, kept
T2 sequence (looked up): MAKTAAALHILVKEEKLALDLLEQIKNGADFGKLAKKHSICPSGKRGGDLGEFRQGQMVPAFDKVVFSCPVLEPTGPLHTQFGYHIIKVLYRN

binding, binds:
B1
B2
B3
B4
B5

biological target: T1, His6-tagged PpiB (wild type) (E. coli); assay: as above; remark: another data set of the same source

binding, binds:
B6
B7
B8

Source: PMC7353009, “Identification of Substrates of Cytoplasmic Peptidyl-Prolyl Cis/Trans Isomerases and Their Collective Essentiality in Escherichia Coli” (International Journal of Molecular Sciences, 2020)
